This note sets out measurements from paper doi:10.1101/2024.06.14.598999 (bioRxiv, 2024).

No constants are given. Whether binding was seen depends on the method and setting. For some assays here: In cells and extracts the contact can be indirect. Some binding calls cover weakened binding; strength is not graded here. Where a sequence is shown, tags or fusion partners need not be part of it.

Test [1] addresses T1, MBP-TSF-SPG11^(WD40, Δ301-394) (human) (UniProt Q96JI7).
T1 sequence: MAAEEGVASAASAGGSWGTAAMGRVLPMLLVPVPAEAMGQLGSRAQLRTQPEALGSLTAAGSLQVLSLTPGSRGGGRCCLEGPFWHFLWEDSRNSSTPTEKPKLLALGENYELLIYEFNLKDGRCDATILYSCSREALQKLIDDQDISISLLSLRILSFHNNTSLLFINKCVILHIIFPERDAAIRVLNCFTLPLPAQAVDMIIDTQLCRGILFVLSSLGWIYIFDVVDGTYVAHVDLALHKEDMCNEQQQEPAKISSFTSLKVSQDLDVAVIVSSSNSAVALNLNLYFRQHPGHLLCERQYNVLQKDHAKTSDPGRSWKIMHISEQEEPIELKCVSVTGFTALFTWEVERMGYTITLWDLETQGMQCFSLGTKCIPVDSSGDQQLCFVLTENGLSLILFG
The experiment in a line: pull-down.

Test [2] concerns the target T2, MBP-TSF-SPG11^(WD40-hairpin, Δ301-394) (human) (UniProt Q96JI7).
T2 sequence: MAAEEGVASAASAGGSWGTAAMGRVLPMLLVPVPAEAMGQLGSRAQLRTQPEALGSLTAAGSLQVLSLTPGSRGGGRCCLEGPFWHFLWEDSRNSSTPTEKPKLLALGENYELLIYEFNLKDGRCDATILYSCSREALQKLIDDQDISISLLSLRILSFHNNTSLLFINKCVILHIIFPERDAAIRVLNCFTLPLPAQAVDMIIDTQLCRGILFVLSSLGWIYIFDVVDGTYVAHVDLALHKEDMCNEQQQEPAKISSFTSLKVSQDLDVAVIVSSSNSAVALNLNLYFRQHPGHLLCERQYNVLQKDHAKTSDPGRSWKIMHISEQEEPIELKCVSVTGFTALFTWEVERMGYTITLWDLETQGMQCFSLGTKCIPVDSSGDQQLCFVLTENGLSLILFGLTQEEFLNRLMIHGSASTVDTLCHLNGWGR
The experiment in a line: pull-down.

Test [3] has as its target T3, MBP-TSF-SPG11^WD40 (residues 1-495) (human) (UniProt Q96JI7).
T3 sequence: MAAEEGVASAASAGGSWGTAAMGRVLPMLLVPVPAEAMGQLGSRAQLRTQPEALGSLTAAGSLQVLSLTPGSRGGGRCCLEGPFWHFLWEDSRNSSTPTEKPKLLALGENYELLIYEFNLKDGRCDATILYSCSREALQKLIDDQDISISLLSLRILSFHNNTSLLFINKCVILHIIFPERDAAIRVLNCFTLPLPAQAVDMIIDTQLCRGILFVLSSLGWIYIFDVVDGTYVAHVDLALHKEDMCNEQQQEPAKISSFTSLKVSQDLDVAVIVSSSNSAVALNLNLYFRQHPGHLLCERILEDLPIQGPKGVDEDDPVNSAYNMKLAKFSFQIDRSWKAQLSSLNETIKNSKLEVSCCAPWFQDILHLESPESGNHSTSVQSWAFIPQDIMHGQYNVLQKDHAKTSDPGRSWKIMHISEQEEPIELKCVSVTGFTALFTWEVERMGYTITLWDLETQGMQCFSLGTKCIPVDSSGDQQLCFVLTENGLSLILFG
The experiment in a line: pull-down.

The target of test [4] is T4, MBP-TSF-SPG11^WD40-hairpin (residues 1-525) (human) (UniProt Q96JI7).
T4 sequence: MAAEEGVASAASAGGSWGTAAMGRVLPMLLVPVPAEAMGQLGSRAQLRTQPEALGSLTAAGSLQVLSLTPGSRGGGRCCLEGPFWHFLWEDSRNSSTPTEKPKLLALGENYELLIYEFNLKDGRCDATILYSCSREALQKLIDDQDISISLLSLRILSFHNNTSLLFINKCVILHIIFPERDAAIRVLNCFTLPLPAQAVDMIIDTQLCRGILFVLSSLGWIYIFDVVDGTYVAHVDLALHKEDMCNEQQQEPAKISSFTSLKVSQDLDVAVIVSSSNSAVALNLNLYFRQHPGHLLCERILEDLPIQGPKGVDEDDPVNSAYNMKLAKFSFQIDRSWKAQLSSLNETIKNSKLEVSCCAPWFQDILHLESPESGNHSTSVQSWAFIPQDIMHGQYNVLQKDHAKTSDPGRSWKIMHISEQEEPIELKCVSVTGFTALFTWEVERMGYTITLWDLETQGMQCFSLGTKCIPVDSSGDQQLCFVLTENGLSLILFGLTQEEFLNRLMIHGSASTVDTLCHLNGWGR
The experiment in a line: pull-down.

For test [5], the target named is human SPG11 (spatacsin), full length, N-terminal Twin-Strep-Flag tag (human) (UniProt Q96JI7). The experiment in a line: pull-down.
Test [6] addresses T5, human His6-AP5β5 trunk domain (residues 1-632) (human) (UniProt Q2VPB7).
T5 sequence: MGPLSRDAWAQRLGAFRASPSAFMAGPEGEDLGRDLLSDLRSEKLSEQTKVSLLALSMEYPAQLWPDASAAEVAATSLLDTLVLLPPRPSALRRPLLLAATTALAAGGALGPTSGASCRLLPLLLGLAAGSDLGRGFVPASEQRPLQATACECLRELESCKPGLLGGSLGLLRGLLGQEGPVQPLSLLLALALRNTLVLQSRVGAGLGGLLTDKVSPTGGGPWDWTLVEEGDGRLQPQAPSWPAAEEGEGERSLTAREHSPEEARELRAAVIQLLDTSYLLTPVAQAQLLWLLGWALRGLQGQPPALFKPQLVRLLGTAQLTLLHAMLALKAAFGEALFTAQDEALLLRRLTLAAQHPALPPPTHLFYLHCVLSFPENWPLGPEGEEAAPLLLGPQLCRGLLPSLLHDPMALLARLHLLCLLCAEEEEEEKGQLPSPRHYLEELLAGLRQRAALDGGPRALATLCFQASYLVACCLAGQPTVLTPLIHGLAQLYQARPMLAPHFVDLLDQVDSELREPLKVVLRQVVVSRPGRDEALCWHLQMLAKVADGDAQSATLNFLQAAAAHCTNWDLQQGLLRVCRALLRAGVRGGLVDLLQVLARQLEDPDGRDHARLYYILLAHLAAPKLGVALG
The experiment in a line: cryo-EM structure.

For test [7], the target named is T6, human His6-AP5β5, full length (residues 1-878) (human) (UniProt Q2VPB7).
T6 sequence: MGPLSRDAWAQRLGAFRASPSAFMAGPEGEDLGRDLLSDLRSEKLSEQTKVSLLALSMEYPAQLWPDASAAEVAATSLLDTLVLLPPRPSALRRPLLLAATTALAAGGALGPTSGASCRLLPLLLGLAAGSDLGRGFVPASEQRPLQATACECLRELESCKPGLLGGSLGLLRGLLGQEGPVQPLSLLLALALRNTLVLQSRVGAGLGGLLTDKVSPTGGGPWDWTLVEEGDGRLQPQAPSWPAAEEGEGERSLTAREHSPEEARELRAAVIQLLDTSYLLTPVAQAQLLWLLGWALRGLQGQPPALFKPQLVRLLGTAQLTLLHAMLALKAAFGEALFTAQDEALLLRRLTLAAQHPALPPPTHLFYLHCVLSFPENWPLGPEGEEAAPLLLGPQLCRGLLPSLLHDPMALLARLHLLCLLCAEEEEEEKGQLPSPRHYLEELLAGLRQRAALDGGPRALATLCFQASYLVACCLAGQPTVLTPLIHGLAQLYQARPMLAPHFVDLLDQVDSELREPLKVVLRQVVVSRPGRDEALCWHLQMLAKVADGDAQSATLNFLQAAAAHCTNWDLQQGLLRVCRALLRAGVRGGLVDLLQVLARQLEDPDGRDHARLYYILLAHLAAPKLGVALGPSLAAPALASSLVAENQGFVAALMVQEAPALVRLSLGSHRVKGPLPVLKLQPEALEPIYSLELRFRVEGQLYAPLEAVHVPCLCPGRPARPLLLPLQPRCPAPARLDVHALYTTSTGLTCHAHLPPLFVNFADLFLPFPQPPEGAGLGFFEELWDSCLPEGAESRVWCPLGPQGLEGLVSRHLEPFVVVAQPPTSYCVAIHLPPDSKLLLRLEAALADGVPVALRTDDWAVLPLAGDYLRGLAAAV
The experiment in a line: cryo-EM structure.

Test [8] has as its target T7, human AP5β5 (1-632) with N-terminal GST tag and C-terminal Twin-Strep tag (subcomplex purification) (human) (UniProt Q2VPB7).
T7 sequence: T5 sequence
The experiment in a line: SEC.

B1: AP5ζ-GST/σ5 subcomplex in Expi293F lysate (mouse AP5ζ-GST with human AP5σ5) (complex, UniProt Q3U829 1-807; Q9NUS5 1-200)
chain 1: MFSAGAESLLHQAREIQDEELRRFCSRVTKLLQEAPGPATVDALQRLFLIVSATKYPRRLEKMCVDLLQTTLCLPASPEQLQVLCAAILREMSPFNDLALSCDHTPNTRQLSLVASVLLAQGDRKGEIRCVSQRIFKILENRQPEGPSVRPLLPILSKVIGLAPGILMEDQTNLLSKRLVDWLRYASIQQGLPYSGGFFSTPRTRQPGPITEVDGAVASDFFTVLSTGQHFTEDQWVNMQAFSMLRKWLLHSGPEDPCSPDADDKSELEGSTLSVLSAASTASRLLPPRERLREVAFEYCQRLLEQSNRRALRKGDSDLQKACLVEAVSVLDVLCRQDPSFLYRTLSCLKALHRRLGEDPGSERALVPLAQFFLNHGEAAAMDAEAVYGQLLRGLPSERFHSPTLAFEVIHFCTHNLALFDSHFLSLLRLSFPSLFKFLAWNSPPLTAEFVVLLPALVDAGTAVEMLHALLDLPCLTAALDLQLRSTQTPSERLLWDISLRVPSCLEAFQDPQFQGLFRHLLRTKASGSTERLTPLHQVLKPMASCARVTQCAEAVPVLLQAFFSAVTQTADGALINQLALLLLERSDSLYPVPQYEARVHGVLSSQLLVLCKLKPSLVVELSRELLEFVGSVSSIHSRASVFTCVVWAIGEYLSVTWDKRCTAEQINKFFEALEALLFEVTQSRPLADLPCCPPEVVTALMTTLTKLASRSQDLIPRVSLFLSKMRTLAQNPATSSVHSEEGAESIRTRASELLTLLKMPSVAQFVFTPPAGVCQPRYHRDTNVALPLALRTVSRLVEKEAGLLPG
chain 2: MVHAFLIHTLRAPNTEDTGLCRVLYSCVFGAEKSPDDPRPHGAERDRLLRKEQILAVARQVESMCRLQQQASGRPPMDLQPQSSDEQVPLHEAPRGAFRLAAENPFQEPRTVVWLGVLSLGFALVLDAHENLLLAEGTLRLLTRLLLDHLRLLAPSTSLLLRADRIEGILTRFLPHGQLLFLNDQFVQGLEKEFSAAWPR
B1: the binding result in test [1] is given as “no binding”; in test [2] it was “no binding”; in test [3], “binds”; in test [4], “binds”; in test [5], “binds”.

B2: mouse AP5μ5 (residues 1-490) (protein, UniProt Q8BJ63 1-490)
chain: MALRAVWLIRHEPGTPLGGTVRFSRRYPTVEKRAKAFNGMTYVPVPEDGPFLRALLFQLRLLDDDKDFMERRDGCSRINKTSIYGLSVGGEELWPVIAFLRDSMIYASVPLVEQALSPRPPLISISGVSQGLELLLGIQDFLYSSQKNDTDLHTKLSQLPDLLLQACPLGTLLDANLQNSLNSINSVSVTQPQKQPAWKVGAYKGKAQISISITETVKCMQYGKQDIADTWQVAGTVACKCDLEGVMPAVTISLSLPTNGSPLQDIIVHPCVTSLDSAILTSSSIDTMDDSAFSGPYKFPFTPPLESFNLCHYTSQVPVPPILGSYHMKEEGVQLKVTVNFKLHESVRNNFEVCEAHIPFYNRGPITHLEYKASFGQLEVFREKSLLVWIIGQKFPKSMEISLSGTLTFGVKGHNKQPFDHICIGNTAYIKLNFRIADYTLTGCYADQHSVQVFASGKPKISAYRKLISSDYYIWNSKAPAPVTYASLLP
Turning to B2, the binding entry in test [6], in test [7] and in test [8] was “binds” throughout.
